According to US20250367321A1, “COMPOSITIONS AND METHODS INVOLVING ADGRG6” (The Regents of the University of California, priority 2022, published 2025):
At least one structure is not confirmed: it was looked up by name or label, or the drawing left a doubt.

Tests used:
CREB phosphorylation = assay: Immunoblotting for phospho-CREB, basal or forskolin-stimulated; assay type: cell-based, human; conditions: stimulated condition (forskolin)
human preadipocytes = assay: cAMP levels by ELISA, basal or forskolin-stimulated; assay type: cell-based; conditions: ADGRG6 KO human preadipocytes, forskolin treatment
Source text: CAMP is a well-known signaling molecule that initiates adipogenesis by increasing protein kinase A (pKA), which then phosphorylates early transcription factors, including C/EBPb. To test whether ADGRG6 might increase cAMP levels in preadipocytes, we measured CAMP levels in WT and ADGRG6 KO human preadipocytes in both basal condition and forskolin which is […], using ELISA. […] We also measured cAMP levels in human preadipocytes that overexpress ADGRG6. […] In order to test whether ADGRG6 can directly affect cAMP levels via adenyl cyclase (AC), that converts ATP to CAMP, we treated ADGRG6 overexpressing preadipocytes with 2′,5′-Dideoxyadenosine (aAdo), an inhibitor of AC. In the basal condition, cAMP levels were reduced in both WT and ADGRG6 overexpressing cells upon aAdo treatment (FIG. 4A). […] Furthermore, we also examined the downstream target of CAMP-PKA, CREB phosphorylation. […] In the stimulated condition, p-CREB increased in WT cells but not in ADGRG6 KO cells (FIG. 4B).

## C=C[C@@]1(C)CC(=O)[C@]2(O)[C@@]3(C)[C@@H](O)CCC(C)(C)[C@@H]3[C@H](O)[C@H](OC(C)=O)[C@@]2(C)O1 [forskolin]
CREB phosphorylation; ADGRG6 KO cells
  p-CREB: not
CREB phosphorylation; WT cells
  p-CREB: increased
Human preadipocytes
  increase in cAMP levels compared to the basal condition: did not show a significant increase
